Laboratory results as given in article PMC4823034.
No constants are given. Whether binding was seen depends on the method and setting. Binding seen in cells or lysates may run through a third protein. Some binding calls cover weakened binding; strength is not graded here.

Protein sequences, listed by entry. Tags and fused reporters are not part of them.
UniProt P38398: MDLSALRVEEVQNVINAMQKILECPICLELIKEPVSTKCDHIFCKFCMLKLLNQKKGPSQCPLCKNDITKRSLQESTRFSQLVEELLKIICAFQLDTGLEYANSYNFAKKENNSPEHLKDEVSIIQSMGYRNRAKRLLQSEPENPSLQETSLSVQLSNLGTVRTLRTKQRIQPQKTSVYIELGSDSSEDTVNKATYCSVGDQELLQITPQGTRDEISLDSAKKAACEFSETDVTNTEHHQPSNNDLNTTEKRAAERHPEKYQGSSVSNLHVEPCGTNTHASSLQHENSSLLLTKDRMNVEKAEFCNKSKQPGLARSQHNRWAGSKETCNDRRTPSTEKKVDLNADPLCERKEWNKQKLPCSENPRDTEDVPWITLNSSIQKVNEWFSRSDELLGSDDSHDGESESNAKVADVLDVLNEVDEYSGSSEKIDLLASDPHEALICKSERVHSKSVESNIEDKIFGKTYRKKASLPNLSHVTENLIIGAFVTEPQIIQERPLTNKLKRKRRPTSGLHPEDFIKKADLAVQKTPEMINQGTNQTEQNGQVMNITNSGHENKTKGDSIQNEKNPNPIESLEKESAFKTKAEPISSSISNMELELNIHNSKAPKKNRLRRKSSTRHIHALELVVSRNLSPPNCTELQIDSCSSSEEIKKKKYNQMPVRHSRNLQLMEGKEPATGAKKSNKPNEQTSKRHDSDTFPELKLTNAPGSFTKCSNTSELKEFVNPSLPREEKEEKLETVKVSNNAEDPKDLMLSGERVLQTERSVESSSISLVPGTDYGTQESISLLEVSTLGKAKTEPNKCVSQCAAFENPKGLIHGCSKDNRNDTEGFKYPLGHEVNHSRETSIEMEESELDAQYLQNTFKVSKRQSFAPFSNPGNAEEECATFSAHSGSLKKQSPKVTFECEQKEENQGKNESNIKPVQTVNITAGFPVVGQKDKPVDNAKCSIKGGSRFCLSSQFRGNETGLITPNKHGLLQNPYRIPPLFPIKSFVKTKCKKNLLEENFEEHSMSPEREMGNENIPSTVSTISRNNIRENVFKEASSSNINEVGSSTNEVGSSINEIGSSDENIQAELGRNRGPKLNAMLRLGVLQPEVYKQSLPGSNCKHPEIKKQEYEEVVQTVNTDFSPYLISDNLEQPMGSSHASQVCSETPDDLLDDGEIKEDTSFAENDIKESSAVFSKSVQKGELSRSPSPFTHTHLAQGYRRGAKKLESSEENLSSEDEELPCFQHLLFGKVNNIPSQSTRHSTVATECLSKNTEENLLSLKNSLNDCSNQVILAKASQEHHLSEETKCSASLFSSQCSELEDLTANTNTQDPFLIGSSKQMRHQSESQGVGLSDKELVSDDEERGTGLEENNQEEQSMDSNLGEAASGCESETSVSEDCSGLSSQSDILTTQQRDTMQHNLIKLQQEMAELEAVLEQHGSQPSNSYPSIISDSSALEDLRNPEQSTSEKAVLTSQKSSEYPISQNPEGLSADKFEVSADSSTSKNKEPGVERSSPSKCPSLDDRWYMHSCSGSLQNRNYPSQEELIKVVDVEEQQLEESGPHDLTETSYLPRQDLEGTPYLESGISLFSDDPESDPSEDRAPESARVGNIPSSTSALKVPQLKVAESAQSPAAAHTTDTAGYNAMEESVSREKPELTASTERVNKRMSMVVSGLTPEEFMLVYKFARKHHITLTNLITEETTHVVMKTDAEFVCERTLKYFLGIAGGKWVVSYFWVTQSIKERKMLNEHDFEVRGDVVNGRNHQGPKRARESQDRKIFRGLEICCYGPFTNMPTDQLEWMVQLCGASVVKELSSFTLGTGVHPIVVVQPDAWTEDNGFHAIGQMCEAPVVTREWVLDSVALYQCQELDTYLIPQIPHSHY
UniProt P53350: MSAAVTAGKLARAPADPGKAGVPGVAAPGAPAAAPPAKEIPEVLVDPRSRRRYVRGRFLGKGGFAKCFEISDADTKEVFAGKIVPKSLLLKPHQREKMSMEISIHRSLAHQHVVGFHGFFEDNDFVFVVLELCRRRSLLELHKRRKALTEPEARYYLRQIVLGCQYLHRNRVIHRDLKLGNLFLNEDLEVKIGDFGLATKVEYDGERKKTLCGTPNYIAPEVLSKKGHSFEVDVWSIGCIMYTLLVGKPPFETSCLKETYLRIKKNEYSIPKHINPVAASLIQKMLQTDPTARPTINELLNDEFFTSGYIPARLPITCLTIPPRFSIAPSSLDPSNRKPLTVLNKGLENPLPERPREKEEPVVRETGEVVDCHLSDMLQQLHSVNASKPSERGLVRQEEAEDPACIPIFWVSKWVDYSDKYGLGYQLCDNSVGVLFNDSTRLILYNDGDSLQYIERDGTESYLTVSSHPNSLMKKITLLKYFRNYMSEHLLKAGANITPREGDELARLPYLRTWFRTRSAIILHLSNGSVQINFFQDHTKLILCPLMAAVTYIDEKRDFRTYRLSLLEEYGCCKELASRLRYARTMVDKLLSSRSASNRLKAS

Columns and labels:
[1] = target: BRCA1 (human (endogenous in HeLa and MCF-7)) (UniProt P38398); experiment: co-IP; whole-cell extracts of undamaged MCF-7 cells; antibodies against either protein, protein A-sepharose, immunoblot
[2] = target: BRCA1 (human (endogenous in HeLa and MCF-7)) (UniProt P38398); experiment: condition: only cells treated with RO-3306 (CDK1 inhibitor) for 4 h; co-IP; whole-cell extracts of HeLa cells treated with 10 uM RO-3306 (CDK1 inhibitor) for 4 h; IP with anti-BRCA1 antibody, protein A-sepharose, immunoblot with anti-BRCA1 and anti-Plk1
[3] = target: BRCA1 (human (endogenous in HeLa and MCF-7)) (UniProt P38398); experiment: co-IP; whole-cell extracts of asynchronous HeLa cells, untreated or treated with calicheamicin (CLM) for 1 h; IP with anti-BRCA1 or anti-Plk1 antibody at 4°C overnight, protein A-sepharose, immunoblot with anti-BRCA1 and anti-Plk1; control IP without antibody

binding [2]: no binding
binding [3]: binds
Substance: Polo-like kinase 1 (from UniProt P53350 1-603) (enzyme)
binding [1]: binds
